# Results: article PMC6925144, “A prospective compound screening contest identified broader inhibitors for Sirtuin 1” (Scientific Reports, 2019)
# Protein sequences, listed by entry. Tags and fused reporters are not part of them. Residues count along the entry.
# UniProt Q96EB6, 2-747 limits assumed: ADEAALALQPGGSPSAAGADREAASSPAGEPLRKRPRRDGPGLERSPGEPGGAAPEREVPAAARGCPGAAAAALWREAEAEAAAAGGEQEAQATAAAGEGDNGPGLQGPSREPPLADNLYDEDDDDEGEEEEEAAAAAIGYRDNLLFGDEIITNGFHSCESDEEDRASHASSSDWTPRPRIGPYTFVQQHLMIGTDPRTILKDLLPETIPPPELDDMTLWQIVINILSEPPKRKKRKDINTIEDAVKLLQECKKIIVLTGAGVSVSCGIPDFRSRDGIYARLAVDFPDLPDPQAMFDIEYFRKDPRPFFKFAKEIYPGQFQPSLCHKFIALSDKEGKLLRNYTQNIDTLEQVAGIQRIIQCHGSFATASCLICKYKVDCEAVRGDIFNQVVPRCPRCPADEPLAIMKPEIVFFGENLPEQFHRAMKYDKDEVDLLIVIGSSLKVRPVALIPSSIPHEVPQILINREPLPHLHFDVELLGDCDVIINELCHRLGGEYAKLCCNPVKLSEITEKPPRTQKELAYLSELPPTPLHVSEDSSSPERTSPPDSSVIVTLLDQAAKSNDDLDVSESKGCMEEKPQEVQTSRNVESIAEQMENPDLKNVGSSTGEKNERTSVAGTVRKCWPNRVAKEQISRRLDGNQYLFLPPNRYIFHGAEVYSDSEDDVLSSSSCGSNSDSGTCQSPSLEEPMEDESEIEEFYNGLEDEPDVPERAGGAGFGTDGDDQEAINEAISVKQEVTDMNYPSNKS
# In all, about 3,200 compounds were measured (“TSA(with NAD+) / Primary screening (TSA) / delta Tm (K)”: median about -0.04, highest 2% from about 0.37 on). The list shows a part of the results.
# Biological target: NAD-dependent deacetylase Sirtuin 1 (human, UniProt Q96EB6)
# Experiment: primary screen, delta tm
# Design: single well (n = 1, as 'the same TSA')
# Conditions: 10 µM
row,SMILES,TSA(with NAD+) / Primary screening (TSA) / delta Tm (K)
1,O=C(NC1CC1)c1ccc2[nH]c3c(c2c1)CCCC3,-0.16 K
2,Cc1nnc(C(C)Oc2ccc3c(c2)CCCNC3=O)o1 (stereo not drawn),-0.11 K
3,Cc1cc(S(=O)(=O)Nc2ccc(C(=O)NCc3ccccc3-n3cccn3)cc2)ccc1F,0.03 K
4,Cc1ccc(C(=O)OCc2ccc(C(=O)Nc3ccccc3)cc2)cc1,-0.18 K
5,CCS(=O)(=O)NCC(=O)O,-0.12 K
6,CC(C)C(=O)NCCc1ccc(Cl)s1,0.09 K
7,O=C(Nc1cccc(Cn2[nH]c(=O)ccc2=O)c1)c1cccc(Oc2ccccc2)c1,-0.19 K
8,Cc1cc(C)cc(N(Cc2ccc(C(N)=O)cc2)Cc2ccc(C(N)=O)cc2)c1,-0.03 K
9,O=C(O)c1cccc2ccccc12,-0.06 K
10,CN1CCC(Sc2ccc3ccccc3c2)C1=O (stereo not drawn),-0.19 K
11,CN(c1ccc(C(N)=O)cc1)S(=O)(=O)c1ccc2c(c1)CCC2,-0.23 K
12,O=C(Cn1[nH]c(=O)c2ccccc2c1=O)Nc1cccc(S(=O)(=O)NCc2ccco2)c1,-0.01 K
13,Cc1nn(-c2ccccc2)cc1C=C1C(=O)NC(=S)NC1=O,-0.01 K
14,C[C@@H](N)C(N)=O,-0.12 K
15,CN(CCCc1cc(-c2ccccc2)n(C)n1)C(=O)CCc1c[nH]c2ccccc12,-0.13 K
16,NC(=O)c1ccccc1NC(=O)CCN1CCN(c2ncccn2)CC1,-0.06 K
17,O=c1cc(NCCCc2ccccc2)nc2ccccn12,-0.05 K
18,CCOC(=O)c1c(NC(=O)COC(=O)c2ccc(C)c(O)c2)sc(C(=O)N(CC)CC)c1C,0.06 K
19,Cc1ccc(OCCCCn2cncn2)c(C)c1,-0.18 K
20,NCCC1(O)CNC1,-0.03 K
21,CN(CCC#N)C(=O)C(C)(C)c1ccccc1,-0.08 K
22,Cc1cc(C2=NN=C(NCc3ccco3)SC2)c(C)n1Cc1ccc2c(c1)OCO2,-0.43 K
23,C=CCOc1ccc(C2C(C(=O)c3ccco3)=C(O)C(=O)N2CCCN2CCOCC2)cc1 (stereo not drawn),-0.13 K
24,CC(C)CC(=O)Nc1ccc(C(=O)COC(=O)CNC(=O)CC23CC4CC(CC(C4)C2)C3)cc1,0.07 K

# Looked up above:
# Value of CC(C)CC(=O)Nc1ccc(C(=O)COC(=O)CNC(=O)CC23CC4CC(CC(C4)C2)C3)cc1 under TSA(with NAD+) / Primary screening (TSA) / delta Tm (K): 0.07 K
# Value of Cc1nnc(C(C)Oc2ccc3c(c2)CCCNC3=O)o1 (stereo not drawn) under TSA(with NAD+) / Primary screening (TSA) / delta Tm (K): -0.11 K
# Value of Cc1nn(-c2ccccc2)cc1C=C1C(=O)NC(=S)NC1=O under TSA(with NAD+) / Primary screening (TSA) / delta Tm (K): -0.01 K
# Value of O=C(Nc1cccc(Cn2[nH]c(=O)ccc2=O)c1)c1cccc(Oc2ccccc2)c1 under TSA(with NAD+) / Primary screening (TSA) / delta Tm (K): -0.19 K

# (more compounds)

row,SMILES,TSA(with NAD+) / Primary screening (TSA) / delta Tm (K)
1,O=C(Nc1nnc[nH]1)C1CC(=O)N(c2ccc3c(c2)CCC3)C1 (stereo not drawn),-0.04 K
2,CCNC(=O)NCc1ccc(NC(=O)c2ccc([N+](=O)[O-])cc2)cc1,-0.12 K
3,CC(OC(=O)c1ccc(CS(C)(=O)=O)cc1)C(=O)NCc1ccco1 (stereo not drawn),-0.01 K
4,COc1ccc(NC(=O)CC23CC4CC(C2)CC(CC(=O)Nc2ccc(OC)cc2)(C4)C3)cc1,-0.11 K
5,NC(=S)c1cccc(NC(=O)CN2CCOCC2)c1,-0.24 K
6,NC(=O)c1ccc(COC(=O)c2ccc(S(=O)(=O)NC3CC3)cc2)cc1,-0.11 K
7,CCn1nc(C(=O)N(C)Cc2ccc(OCc3ccccc3)c(OC)c2)c2ccccc2c1=O,-0.01 K
8,Cn1ccnc1-c1sc(NC(=O)c2ccccc2Br)nc1-c1ccccc1,0.05 K
9,COc1ccc(OC)c(C2CCCN2C(=O)c2ccc(NC(=O)c3ccco3)s2)c1 (stereo not drawn),-0.18 K
10,COC(=O)c1ccccc1NC(=O)Cc1c[nH]c2ccccc12,-0.16 K
11,COC(=O)c1c(C)[nH]c(C(=O)NCCc2ccc(-n3cccn3)cc2)c1C,-0.03 K
12,CN(c1ccc(F)c(F)c1)S(=O)(=O)c1ccc2nc[nH]c(=O)c2c1,0.16 K
13,c1ccc(-c2noc(CN3CCN(c4nc(-c5ccsc5)nc5ccccc45)CC3)n2)cc1,0.13 K
14,O=C(NNC(=O)c1cnccn1)c1ccc(OCc2ccccc2)cc1,0.01 K
15,O=c1[nH]cnc2c(Cl)cc(Cl)cc12,-0.16 K
16,COCCC(C)N (stereo not drawn),-0.11 K
17,Cn1ncc2c(=O)n(CC(=O)Nc3cc(C(N)=O)ccc3N3CCCC3)cnc21,-0.12 K
18,Cc1ccc(-c2nc(C)sc2CC(=O)Nc2ccc(C(N)=O)cc2)cc1,-0.08 K
19,COc1cccc(C2(C)NC(=O)N(CC(=O)Nc3ccc(C(N)=O)cc3)C2=O)c1 (stereo not drawn),0.15 K
20,Cc1ccc(-c2nn(-c3ccccc3)cc2C(=O)Nc2cccc(S(=O)(=O)N3CCOCC3)c2)cc1,0.26 K
21,CC(C)(C)OC(=O)N1CCN(C(=O)CNc2ccccc2C(N)=O)CC1,0.06 K
22,C=CCSCCN,0.05 K
23,O=[N+]([O-])c1ccc(-c2nnc(CSc3nnc(NCc4ccccc4)s3)o2)cc1,-0.01 K
24,Cc1cccc2c(CC(=O)O)c(-c3ccccc3)[nH]c12,-0.18 K

row,SMILES,TSA(with NAD+) / Primary screening (TSA) / delta Tm (K)
1,CCCOc1ccc(NC=C2C(=O)NC(=S)NC2=O)cc1OCCC,-0.08 K
2,O=C(Cc1cccc2ccccc12)NC(c1ccccc1)c1ccccc1,-0.03 K
3,O=C1/C(=C/c2ccc(F)cc2)Oc2cc(O)ccc21,-0.01 K
4,Cc1noc(C)c1COc1cccc(C(=O)Nc2ccc(N3CCN(Cc4ccccc4)CC3)cc2)c1,0.12 K
5,CCN(CC)S(=O)(=O)c1cccc(C(=O)N[C@H](C(=O)OCC(=O)NC(C)C23CC4CC(CC(C4)C2)C3)C(C)C)c1 (stereo partly drawn),-0.11 K
6,O=C1/C(=C/c2cccc3cccnc23)COc2ccc(Br)cc21,0.09 K
7,CN(C)c1ccc(S(N)(=O)=O)cc1N,-0.04 K
8,COc1ccc(CCNC(=O)c2ccccc2SCC(=O)NC23CC4CC(CC(C4)C2)C3)cc1,0.05 K
9,CC(=O)Nc1ccc(NC(=O)c2cn(Cc3ccccc3)nc2-c2ccc(Cl)cc2)cc1,0.19 K
10,N#CC1=C(N)N(c2ccccc2)C(=O)C1,-0.22 K
11,Oc1ccc(/C=N/c2ccccc2Cc2ccccc2)c(O)c1O,-0.48 K
12,Cc1[nH]c2ccc(CNC(=O)N3CCC(C(N)=O)CC3)cc2c1C,-0.05 K
13,O=C(/C=C/c1ccc(N2CCCC2=O)cc1)NCCN1CCOCC1,0.16 K
14,Cc1cccc(Nc2nnc(SCC(=O)Nc3ccc(C(N)=O)cc3)s2)c1,0.17 K
15,Cc1ccc(C(=O)OCC(=O)NC(C)c2ccc3c(c2)CCCC3)cc1O (stereo not drawn),-0.01 K
16,CN1CCN(C(=O)/C=C/c2cn(CCC#N)c3ccccc23)C(c2ccccc2)C1 (stereo not drawn),-0.14 K
17,NC(=O)c1ccc(NC(=O)c2cc(-c3cccnc3)nc3ccccc23)cc1,-0.09 K
18,NC(=O)c1ccc(NC(=O)COC(=O)CNC(=O)C2CCCCC2)cc1,0.01 K
19,NS(=O)(=O)c1ccc2c(c1)CCN2C(=O)Nc1cccc2ccccc12,0.08 K
20,CCn1c(S)nnc1C1CC1,-0.23 K
21,O=c1oc2ccc3ccccc3c2cc1-c1cnc(N/N=C/c2ccc(Br)cc2)s1,0.28 K
22,Cc1ccc(C(=O)OCC(=O)NC(C)C23CC4CC(CC(C4)C2)C3)cc1NC(=O)c1ccco1 (stereo not drawn),-0.12 K
23,Cc1cc(C(=O)OCc2cc3ccccc3[nH]c2=O)on1,-0.14 K
24,O=C(CN1CCCCCCC1=O)NCCc1nc2ccccc2[nH]1,-0.22 K

row,SMILES,TSA(with NAD+) / Primary screening (TSA) / delta Tm (K)
1,Cc1cccc(NC(=O)CN2CCN(c3ccccc3F)CC2)c1C,-0.05 K
2,CCCC(N)CN (stereo not drawn),-0.19 K
3,Cc1cc(CNc2ccccc2C(N)=O)no1,0.07 K
4,CCCOc1cccc(C2C(C(=O)c3ccco3)=C(O)C(=O)N2CCCN2CCOCC2)c1 (stereo not drawn),-0.13 K
5,NC(=O)C1CCN(c2nc(CSc3ccccc3)nc3sc4c(c23)CCCC4)CC1,2.22 K
6,NC(=O)C1CCN(Cc2nc3ccc(Cl)cc3c(=O)[nH]2)CC1,-0.23 K
7,Cc1ccc(NC(=O)CN2CCN(C(=O)c3ccccc3NC(=O)c3ccco3)CC2)cc1,-0.03 K
8,COc1ccc(C2C(C(=O)c3cc4ccccc4o3)=C(O)C(=O)N2CCCN2CCOCC2)cc1 (stereo not drawn),0.01 K
9,Cn1c(-c2ccccc2)c(C=O)c2ccccc21,-0.32 K
10,O=C1/C(=C\c2ccc(Br)cc2)COc2ccccc21,-0.11 K
11,O=C(Nc1cccc(S(=O)(=O)N2CCOCC2)c1)c1nn(Cc2ccccc2)c(=O)c2ccccc12,0.05 K
12,CCc1ccc(CNC(C)c2c(C)nn(C)c2C)cc1 (stereo not drawn),-0.21 K
13,CC(N)CCO (stereo not drawn),-0.03 K
14,CC1Cc2ccccc2N1C(=O)COC(=O)/C=C/c1cccc(F)c1 (stereo not drawn),0.09 K
15,Clc1ccc(-c2nc(CSc3nnc(NCc4ccco4)s3)cs2)cc1,-0.03 K
16,CCNCc1ccc2c(c1)OCO2,-0.18 K
17,Cc1nc2sccn2c1CNCc1ccccc1,-0.14 K
18,Sc1ncc[nH]1,-0.02 K
19,CC(=O)N1N=C(c2ccccc2)CC1c1ccc(Br)cc1 (stereo not drawn),-0.08 K
20,Cc1cc(=O)oc2cc(NC(=O)c3cccc(S(=O)(=O)N(C)c4ccccc4)c3)ccc12,0.08 K
21,Fc1ccc(-c2csc3ncnc(N4CCN(c5nccs5)CC4)c23)cc1,-0.03 K
22,NCC(=O)OCc1ccccc1,-0.28 K
23,O=C1NCCN(C(=O)c2ccc[nH]2)C1c1ccc(C(F)(F)F)cc1 (stereo not drawn),-0.21 K
24,Cc1ccc(NC(=O)COC(=O)C23CC4CC(C2)CC(c2ccccc2)(C4)C3)cc1S(=O)(=O)N(C)C,0.09 K
